Some of the results follow. Many values rest on one well or one pass, so single values are uncertain.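 Imaging used 1,536-well plates; nuclei positive for cleaved PARP by antibody were divided by total DNA-stained nuclei to yield the apoptosis fraction. Doses for screening kept most cells viable, and cell lines differ markedly in resting and induced cleaved-PARP levels.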
Key:
Test in all cases: cleaved PARP positive nuclei fraction relative to DMSO control; melanoma cells; higher = more apoptosis
Conditions in all cases: library dose: low library concentration; 72 h
MZ2-MEL = system: MZ2-MEL
MeWo = system: MeWo
RPMI7951 = system: RPMI7951
RVH-421 = system: RVH-421
SkMel28 = system: SkMel28
SkMel2 = system: SkMel2
SkMel30 = system: SkMel30
SkMel5 = system: SkMel5
UACC257 = system: UACC257
UACC62 = system: UACC62
WM115 = system: WM115
WM1716 = system: WM1716
WM1745 = system: WM1745
WM3526 = system: WM3526
WM3619 = system: WM3619
WM451Lu = system: WM451Lu

Compound	cleaved PARP positive nuclei fraction (MZ2-MEL) [%]	cleaved PARP positive nuclei fraction (MeWo) [%]	cleaved PARP positive nuclei fraction (RPMI7951) [%]	cleaved PARP positive nuclei fraction (RVH-421) [%]	cleaved PARP positive nuclei fraction (SkMel28) [%]	cleaved PARP positive nuclei fraction (SkMel2) [%]	cleaved PARP positive nuclei fraction (SkMel30) [%]	cleaved PARP positive nuclei fraction (SkMel5) [%]	cleaved PARP positive nuclei fraction (UACC257) [%]	cleaved PARP positive nuclei fraction (UACC62) [%]	cleaved PARP positive nuclei fraction (WM115) [%]	cleaved PARP positive nuclei fraction (WM1716) [%]	cleaved PARP positive nuclei fraction (WM1745) [%]	cleaved PARP positive nuclei fraction (WM3526) [%]	cleaved PARP positive nuclei fraction (WM3619) [%]	cleaved PARP positive nuclei fraction (WM451Lu) [%]
CCCCCCCCc1ccc(CCC(N)(CO)CO)cc1 [fingolimod] + Oc1nc(-c2ccc(C(F)(F)F)cc2)nc2c1CSCC2 [XAV939] (first compound 2 µM, partner dose 2 µM)	92.3	77.4	55.8	437	150	132	255	86.2	151	137	44.9	251	132	107	106	30
CC1(C)CCC(c2ccc(Cl)cc2)=C(CN2CCN(c3ccc(C(=O)NS(=O)(=O)c4ccc(N[C@H](CCN5CCOCC5)CSc5ccccc5)c(S(=O)(=O)C(F)(F)F)c4)cc3)CC2)C1 + CCc1ccc(CCOc2ccc(CC3SC(=O)NC3=O)cc2)nc1 [pioglitazone] (first compound 0.4 µM, partner dose 2 µM)	247	191	111	212	95.6	152	110	560	272	95.2	177	206	583	50.9	121	575
C[C@@H](N)c1ccc(C(=O)Nc2ccnc3[nH]ccc23)cc1 + COc1ccc2c(c1)CCC1C2CCC2(C)C(NCCCCCCN3C(=O)C=CC3=O)CCC12 [U73122] (first compound 0.4 µM, partner dose 0.4 µM)	90.2	126	34.5	130	109	107	31.1	77.6	162	176	14.6	60	108	60.7	137	66.1
CN(c1ncccc1CNc1nc(Nc2ccc3c(c2)CC(=O)N3)ncc1C(F)(F)F)S(C)(=O)=O + Cn1cncc1[C@@](N)(c1ccc(Cl)cc1)c1ccc2c(c1)c(-c1cccc(Cl)c1)cc(=O)n2C [tipifarnib] (first compound 0.08 µM, partner dose 0.01 µM)	61.6	96.5	199	107	127	156	60.7	97.6	86.7	77.8	131	124	104	197	107	118
NC1(c2ccc(-c3nc4ccn5c(=O)[nH]nc5c4cc3-c3ccccc3)cc2)CCC1 + COC(=O)c1sccc1S(=O)(=O)Nc1ccc(Nc2ccccc2)cc1OC [GSK0660] (first compound 0.4 µM, partner dose 1 µM)	171	81.1	41.7	116	64.6	323	66.2	83.8	157	121	238	162	90.4	272	84.1	129
CC(=O)O[C@@]12CO[C@@H]1C[C@H](O)[C@@]1(C)C(=O)[C@H](O)C3=C(C)[C@@H](OC(=O)[C@H](O)[C@@H](NC(=O)OC(C)(C)C)c4ccccc4)C[C@@](O)([C@@H](OC(=O)c4ccccc4)[C@H]21)C3(C)C [Docetaxel] + CC(C)CCN1c2nc(Nc3cc(F)c(O)c(F)c3)ncc2N(C)C(=O)C1C [BID1870] (first compound 0.0001 µM, partner dose 0.2 µM)	1410	263	96.3	146	1220	235	107	101	1580	640	473	222	163	589	131	71.5
COc1ccc(C2=N[C@@H](c3ccc(Cl)cc3)[C@@H](c3ccc(Cl)cc3)N2C(=O)N2CCNC(=O)C2)c(OC(C)C)c1 [Nutlin-3] + COC(=O)c1sccc1S(=O)(=O)Nc1ccc(Nc2ccccc2)cc1OC [GSK0660] (first compound 0.1 µM, partner dose 1 µM)	41.3	85.4	38.5	153	104	115	70	78.1	190	116	161	248	85.1	85.5	197	44.2
Cn1sc(=O)n(Cc2ccccc2)c1=O + Cn1cncc1[C@@](N)(c1ccc(Cl)cc1)c1ccc2c(c1)c(-c1cccc(Cl)c1)cc(=O)n2C [tipifarnib] (first compound 0.4 µM, partner dose 0.01 µM)	76.6	94.1	109	148	63	191	68.3	33.9	136	60.6	101	114	102	75.9	129	101
C[C@]1(O)C[C@@H](c2nc(-c3ccc4ccc(-c5ccccc5)nc4c3)c3c(N)nccn32)C1 + Cc1ccc(NC(=O)c2cccc(N(C)C)c2)cc1NC(=O)c1ccc(O)cc1 [ZM336372] (first compound 0.4 µM, partner dose 2 µM)	75.2	96.5	69.6	60.8	44.7	97.4	140	83.1	179	179	76.8	123	122	66.7	105	59.7

Quoted from the listing.
CC(=O)O[C@@]12CO[C@@H]1C[C@H](O)[C@@]1(C)C(=O)[C@H](O)C3=C(C)[C@@H](OC(=O)[C@H](O)[C@@H](NC(=O)OC(C)(C)C)c4ccccc4)C[C@@](O)([C@@H](OC(=O)c4ccccc4)[C@H]21)C3(C)C [Docetaxel] + CC(C)CCN1c2nc(Nc3cc(F)c(O)c(F)c3)ncc2N(C)C(=O)C1C [BID1870] (first compound 0.0001 µM, partner dose 0.2 µM) | cleaved PARP positive nuclei fraction (WM3526) [%]: 589
CC1(C)CCC(c2ccc(Cl)cc2)=C(CN2CCN(c3ccc(C(=O)NS(=O)(=O)c4ccc(N[C@H](CCN5CCOCC5)CSc5ccccc5)c(S(=O)(=O)C(F)(F)F)c4)cc3)CC2)C1 + CCc1ccc(CCOc2ccc(CC3SC(=O)NC3=O)cc2)nc1 [pioglitazone] (first compound 0.4 µM, partner dose 2 µM) | cleaved PARP positive nuclei fraction (SkMel5) [%]: 560
